Experimental data taken from patent US7507708B2 (Pharma Mar, S.A.U., priority 2003, dated 2009).
Strings that start with PEPTIDE1 are HELM notation: dots part the residues, brackets hold end groups and non-standard residues.

Assay: general procedure: Fmoc solid-phase peptide synthesis; DIPCDI/HOAt
Details: whole synthesis
[1] = HPLC Condition A, scale of the general procedure 1 g of resin
[2] = scale of the general procedure 1 g of resin

| Substance | isolated mass [mg] | final purity (method not given) [1] [%] | isolated yield [2] [%] | crude mass [mg] | crude HPLC purity [1] [%] | crude yield [2] [% yield] |
| --- | --- | --- | --- | --- | --- | --- |
| PEPTIDE1{[4S-MeHex].[dV].T.V.[dV].[dP].[Orn].[D-aIle].[D-aThr].[D-aIle].[dV].F.[Z-Dhb].V}$PEPTIDE1,PEPTIDE1,9:R3-14:R2$$$V2.0 | 192 | 92.3 | 26 | – | – | – |
| (4S)-MeHex-D-Val-Thr(tBu)-Val-D-Val-D-Pro-Orn(Boc)-D-allo-Ile-D-allo-Thr (Val-Z-Dhb-Phe-H)-D-allo-Ile-D-Val-OH | – | – | – | 639 | >95 | 77 |
